These are yes or no findings as the source states them, for the method shown. Binding seen in cells or lysates may run through a third protein. Here binding means that the protein was enriched with, or labelled near, the bait; the list need not be complete. For some of these results: A no says only that the protein was not detected with the bait.

Common to all, as to experiment: affinity purification with mass spectrometry
The target of test [1] is EIF4E6-PTP (Trypanosoma brucei) (UniProt Q57V43).
Test [2] concerns the target EIF4E5-PTP (Trypanosoma brucei) (UniProt Q38B99).
Test [3] has as its target EIF4E2-PTP (Trypanosoma brucei) (UniProt Q387Q8).
Test [4] deals with EIF4E3-PTP (Trypanosoma brucei) (UniProt Q383A4).

For the substance EIF4E3 (from UniProt Q383A4), the binding entry in test [1] is on record as “no binding”; in test [2], “binds”. For SLBP2 (from UniProt Q57WX0), the binding entry in test [3] is recorded as “binds”. With Tb927.8.4560 (from UniProt Q57UZ5), in test [2], the binding entry is reported as “binds”. For the substance Tb927.10.14700 (from UniProt Q388D4), the binding result in test [4] and in test [1] was “binds” in each case. On to “putative guanosine monophosphate reductase (Tb927.5.2080) (from UniProt Q57ZS7) (enzyme)”, for which the binding entry in test [4] is listed as “binds”.

The values are drawn from article doi:10.1101/2022.05.10.491326.
